# B1: Asp22Tyr: SULT1E1 allozyme with tyrosine in place of aspartic acid at residue 22 (thymine at nucleotide 64) (protein, UniProt P49888 1-294, looked up, variant D22Y)
# Sulfotransferase 1E1: MNSELDYYEKFEEVHGILMYKYFVKYWDNVEAFQARPDDLVIATYPKSGTTWVSEIVYMIYKEGDVEKCKEDVIFNRIPFLECRKENLMNGVKQLDEMNSPRIVKTHLPPELLPASFWEKDCKIIYLCRNAKDVAVSFYYFFLMVAGHPNPGSFPEFVEKFMQGQVPYGSWYKHVKSWWEKGKSPRVLFLFYEDLKEDIRKEVIKLIHFLERKPSEELVDRIIHHTSFQEMKNNPSTNYTTLPDEIMNQKLSPFMRKGITGDWKNHFTVALNEKFDKHYEQQMKESTLKFRTEI
# B2: Ala32Val: SULT1E1 allozyme with valine in place of alanine at residue 32 (thymine at nucleotide 95) (protein, UniProt P49888 1-294, looked up, variant A32V)
# Sulfotransferase 1E1: MNSELDYYEKFEEVHGILMYKDFVKYWDNVEVFQARPDDLVIATYPKSGTTWVSEIVYMIYKEGDVEKCKEDVIFNRIPFLECRKENLMNGVKQLDEMNSPRIVKTHLPPELLPASFWEKDCKIIYLCRNAKDVAVSFYYFFLMVAGHPNPGSFPEFVEKFMQGQVPYGSWYKHVKSWWEKGKSPRVLFLFYEDLKEDIRKEVIKLIHFLERKPSEELVDRIIHHTSFQEMKNNPSTNYTTLPDEIMNQKLSPFMRKGITGDWKNHFTVALNEKFDKHYEQQMKESTLKFRTEI
# B3: Pro253His: SULT1E1 allozyme with histidine in place of proline at residue 253 (adenine at nucleotide 758) (protein, UniProt P49888 1-294, looked up, variant P253H)
# Sulfotransferase 1E1: MNSELDYYEKFEEVHGILMYKDFVKYWDNVEAFQARPDDLVIATYPKSGTTWVSEIVYMIYKEGDVEKCKEDVIFNRIPFLECRKENLMNGVKQLDEMNSPRIVKTHLPPELLPASFWEKDCKIIYLCRNAKDVAVSFYYFFLMVAGHPNPGSFPEFVEKFMQGQVPYGSWYKHVKSWWEKGKSPRVLFLFYEDLKEDIRKEVIKLIHFLERKPSEELVDRIIHHTSFQEMKNNPSTNYTTLPDEIMNQKLSHFMRKGITGDWKNHFTVALNEKFDKHYEQQMKESTLKFRTEI
# Tested on: SULT1E1
# Assay: Quantitative Western blot of immunoreactive SULT1E1 protein in COS-1 cytosolic extracts
# Design: species or system human
# Conditions: corrected for transfection efficiency, in words
# Procedure: Quantitative Western blot analysis was performed using COS-1 cytosolic extracts containing recombinant SULT1E1 allozymes. The quantity of extracts loaded on 12.5% acrylamide gels was adjusted for each allozyme extract, so that each lane contained an equal quantity of β-galactosidase activity, i.e., gel loading was corrected for variation in transfection efficiency. The level of immunoreactive protein was measured using a rabbit polyclonal antibody directed against amino acids 1-13 of SULT1E1, with a cysteine residue added at the carboxy terminus. Properties of this antibody have been described elsewhere. See, Aksoy et al., (1994) Biochem. Biophys. Res. Commun. 200:1621-1629. Bound antibody was detected using the ECL system (Amersham Pharmacia, Piscataway, N.J.). An Ambis Radioanalytic Imaging System, Quant Probe Version 4.31 (Ambis, Inc., San Diego, Calif.) was used to quantitate immunoreactive protein in each lane, and the data were expressed as a percent of the intensity of the control wild type SULT1E1 protein band on that gel.
row,Molecule,level of immunoreactive SULT1E1 protein compared with wild type
1,B1,alterations in the level of protein
2,B2,decreased level of immunoreactive protein
3,B3,no differences

# Reference: patent publication US7803921B2, “Sulfotransferase 1E1 sequence variants” (Mayo Foundation for Medical Education and Research, priority 2002, dated 2010)
